No constants are given. Whether binding was seen depends on the method and setting. In cells and extracts the contact can be indirect. Some entries that bind do so weakly or less than the wild type.
Columns and labels:
Experiment in all cases: co-IP; HEK293(hGHR) cells transfected with FLAG- and Myc-tagged STAT5B WT or variant plasmids, untreated or GH-stimulated (100 ng/ml, 30 min); 300 ug whole-cell lysate, immunoprecipitation with anti-Myc sepharose beads, immunoblot
[1] = target: STAT5B p.Ala478Val (human) (UniProt P51692)
[2] = target: STAT5B p.Gln177Pro (human) (UniProt P51692)
[3] = target: STAT5B p.Gln474Arg (human) (UniProt P51692)

Chains of the proteins cited; added tags and fusions are not shown. Lines headed by an entry give the natural chain unless they say otherwise; changes in a name come on top. A line that says so, or that is headed by a name, gives the form on record, which may keep a tag or linker.
UniProt P51692: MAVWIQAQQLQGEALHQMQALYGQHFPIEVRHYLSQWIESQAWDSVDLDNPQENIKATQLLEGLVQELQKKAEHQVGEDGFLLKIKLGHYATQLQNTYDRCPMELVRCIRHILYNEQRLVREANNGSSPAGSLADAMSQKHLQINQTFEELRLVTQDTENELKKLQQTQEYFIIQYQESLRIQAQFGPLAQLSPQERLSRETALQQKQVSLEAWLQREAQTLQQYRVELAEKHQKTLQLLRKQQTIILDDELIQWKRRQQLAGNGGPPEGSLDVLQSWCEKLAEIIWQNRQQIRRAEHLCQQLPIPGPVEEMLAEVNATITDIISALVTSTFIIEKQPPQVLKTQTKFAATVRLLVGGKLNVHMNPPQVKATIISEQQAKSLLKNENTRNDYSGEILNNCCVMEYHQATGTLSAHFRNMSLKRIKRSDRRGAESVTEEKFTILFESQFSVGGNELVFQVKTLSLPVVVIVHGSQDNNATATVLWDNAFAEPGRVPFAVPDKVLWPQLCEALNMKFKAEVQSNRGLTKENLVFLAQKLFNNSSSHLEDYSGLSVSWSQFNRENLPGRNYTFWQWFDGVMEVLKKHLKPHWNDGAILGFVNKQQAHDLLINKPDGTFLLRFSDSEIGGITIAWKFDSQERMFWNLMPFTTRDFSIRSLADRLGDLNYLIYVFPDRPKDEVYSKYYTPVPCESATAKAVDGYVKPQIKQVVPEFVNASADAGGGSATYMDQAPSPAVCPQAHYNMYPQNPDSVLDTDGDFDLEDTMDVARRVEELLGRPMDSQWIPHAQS
STAT5B p.Ala478Val (P51692, form named): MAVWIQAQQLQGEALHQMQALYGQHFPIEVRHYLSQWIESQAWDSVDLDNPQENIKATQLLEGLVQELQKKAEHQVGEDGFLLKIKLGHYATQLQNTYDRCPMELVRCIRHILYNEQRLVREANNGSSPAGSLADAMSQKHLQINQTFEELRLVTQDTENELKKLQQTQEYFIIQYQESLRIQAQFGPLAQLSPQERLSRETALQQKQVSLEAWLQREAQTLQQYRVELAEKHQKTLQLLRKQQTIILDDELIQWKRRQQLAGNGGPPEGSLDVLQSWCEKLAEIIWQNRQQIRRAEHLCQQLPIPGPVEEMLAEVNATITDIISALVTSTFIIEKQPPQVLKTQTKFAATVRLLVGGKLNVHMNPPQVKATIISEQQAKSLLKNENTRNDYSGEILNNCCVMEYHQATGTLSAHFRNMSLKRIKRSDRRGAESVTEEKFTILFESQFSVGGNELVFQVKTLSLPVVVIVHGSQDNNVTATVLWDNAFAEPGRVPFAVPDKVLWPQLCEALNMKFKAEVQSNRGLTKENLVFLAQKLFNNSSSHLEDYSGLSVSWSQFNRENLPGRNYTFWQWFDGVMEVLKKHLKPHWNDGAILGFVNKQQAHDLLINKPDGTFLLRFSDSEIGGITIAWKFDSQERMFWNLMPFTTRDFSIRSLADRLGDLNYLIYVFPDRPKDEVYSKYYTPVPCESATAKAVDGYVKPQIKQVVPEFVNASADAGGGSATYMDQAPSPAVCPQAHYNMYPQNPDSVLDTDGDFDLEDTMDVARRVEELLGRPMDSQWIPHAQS
STAT5B p.Gln177Pro (P51692, form named): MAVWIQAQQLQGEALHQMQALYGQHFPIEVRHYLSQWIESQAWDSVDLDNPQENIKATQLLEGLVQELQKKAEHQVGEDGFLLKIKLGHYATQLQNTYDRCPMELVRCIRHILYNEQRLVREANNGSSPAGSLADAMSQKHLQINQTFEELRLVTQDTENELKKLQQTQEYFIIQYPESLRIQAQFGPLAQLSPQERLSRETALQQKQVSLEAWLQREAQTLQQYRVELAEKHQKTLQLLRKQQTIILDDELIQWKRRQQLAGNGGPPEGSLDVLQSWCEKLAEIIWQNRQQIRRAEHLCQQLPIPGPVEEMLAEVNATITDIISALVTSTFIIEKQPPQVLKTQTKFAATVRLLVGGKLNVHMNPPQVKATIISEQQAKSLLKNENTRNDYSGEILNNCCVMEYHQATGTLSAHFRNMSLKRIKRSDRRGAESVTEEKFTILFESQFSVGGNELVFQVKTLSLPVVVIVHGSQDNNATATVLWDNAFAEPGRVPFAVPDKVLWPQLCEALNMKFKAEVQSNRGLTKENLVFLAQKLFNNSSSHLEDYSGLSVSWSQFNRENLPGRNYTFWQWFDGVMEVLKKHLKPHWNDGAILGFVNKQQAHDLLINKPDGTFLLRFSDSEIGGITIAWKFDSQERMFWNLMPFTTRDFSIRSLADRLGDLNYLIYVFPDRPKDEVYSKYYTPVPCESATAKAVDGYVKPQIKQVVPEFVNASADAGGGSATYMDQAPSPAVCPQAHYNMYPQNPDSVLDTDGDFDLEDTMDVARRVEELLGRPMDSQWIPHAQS
STAT5B p.Gln474Arg (P51692, form named): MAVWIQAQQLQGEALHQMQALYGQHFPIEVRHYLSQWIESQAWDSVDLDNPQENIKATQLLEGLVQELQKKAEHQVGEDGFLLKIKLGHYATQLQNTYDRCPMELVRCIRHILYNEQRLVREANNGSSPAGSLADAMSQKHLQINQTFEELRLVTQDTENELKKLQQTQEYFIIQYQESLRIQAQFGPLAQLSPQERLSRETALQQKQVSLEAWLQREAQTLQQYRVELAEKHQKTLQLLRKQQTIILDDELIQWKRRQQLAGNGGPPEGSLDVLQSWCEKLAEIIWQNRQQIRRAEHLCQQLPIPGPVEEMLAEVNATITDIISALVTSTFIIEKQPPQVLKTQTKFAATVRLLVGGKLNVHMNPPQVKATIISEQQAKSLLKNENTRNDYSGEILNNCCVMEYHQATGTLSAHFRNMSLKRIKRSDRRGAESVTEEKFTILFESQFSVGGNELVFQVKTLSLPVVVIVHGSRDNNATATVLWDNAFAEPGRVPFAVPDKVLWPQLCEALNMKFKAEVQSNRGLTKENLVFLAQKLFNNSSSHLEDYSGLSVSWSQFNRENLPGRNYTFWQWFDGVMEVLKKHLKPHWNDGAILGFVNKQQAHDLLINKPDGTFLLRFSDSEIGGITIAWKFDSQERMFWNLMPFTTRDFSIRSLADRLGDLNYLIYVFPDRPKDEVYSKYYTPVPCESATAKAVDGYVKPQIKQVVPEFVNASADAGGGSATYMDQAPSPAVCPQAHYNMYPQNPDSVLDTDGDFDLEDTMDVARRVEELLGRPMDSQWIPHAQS

Row | binding [1] | binding [2] | binding [3] | Substance
1 | binds | – | – | STAT5B p.Ala478Val (from UniProt P51692 1-787)
2 | binds | binds | binds | signal transducer and activator of transcription 5B (STAT5B), wild type (from UniProt P51692 1-787)
3 | – | binds | – | STAT5B p.Gln177Pro (from UniProt P51692 1-787)
4 | – | – | binds | STAT5B p.Gln474Arg (from UniProt P51692 1-787)

Source: publication PMC5974024
